From PubChem BioAssay AID588590 (National Center for Advancing Translational Sciences (NCATS), 2011)
The whole screen tested about 390,000 compounds, of which about 4,000 (1%) were called active. The inconclusive results got no clear call from the source; some entries with a clear call stand among them for comparison. Calls come from the whole dose curve; as a rule, active = well fitted inhibition curve with a large enough effect; inconclusive = small, poorly fitted or top-dose-only effect, or another doubt; inactive = no such curve, though single readings can be large or run the other way. A potency beside an inconclusive call is a rough fit, not a confirmed value.

By UniProt entry, the sequences of proteins in these tests, tags left out. Where a name states a change or a piece, a line headed by the entry shows the natural chain unless it says otherwise.
UniProt Q9UNA4: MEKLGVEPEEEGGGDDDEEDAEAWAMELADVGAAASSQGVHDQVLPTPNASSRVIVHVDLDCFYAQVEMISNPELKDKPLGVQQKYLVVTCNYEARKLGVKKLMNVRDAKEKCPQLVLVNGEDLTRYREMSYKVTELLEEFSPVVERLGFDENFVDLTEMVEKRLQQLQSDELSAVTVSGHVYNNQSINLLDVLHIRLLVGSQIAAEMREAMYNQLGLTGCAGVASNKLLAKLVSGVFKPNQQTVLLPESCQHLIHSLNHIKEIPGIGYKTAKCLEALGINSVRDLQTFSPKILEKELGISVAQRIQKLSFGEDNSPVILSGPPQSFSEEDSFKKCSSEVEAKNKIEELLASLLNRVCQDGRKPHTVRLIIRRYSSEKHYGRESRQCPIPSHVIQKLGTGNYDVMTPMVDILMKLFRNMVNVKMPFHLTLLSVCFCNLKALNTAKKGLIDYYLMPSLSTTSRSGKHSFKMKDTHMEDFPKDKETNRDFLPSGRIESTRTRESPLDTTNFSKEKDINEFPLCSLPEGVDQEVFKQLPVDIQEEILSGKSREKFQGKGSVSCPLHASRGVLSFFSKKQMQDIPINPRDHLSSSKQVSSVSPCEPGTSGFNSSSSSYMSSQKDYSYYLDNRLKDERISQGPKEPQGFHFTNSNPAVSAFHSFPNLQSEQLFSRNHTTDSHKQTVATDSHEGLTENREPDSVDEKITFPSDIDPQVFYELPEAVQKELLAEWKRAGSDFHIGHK

Biological target: DNA polymerase iota (Homo sapiens) (UniProt Q9UNA4)
Experiment: qHTS for Inhibitors of Polymerase Iota
Settings: Pol iota fluorescent replication assay, 10 min; series mostly up to 115 µM
How it was run: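 Fluorescent replication assay read twice, at 0 min and 10 min after adding 50 nM (final) substrate. Enzyme (10 nM) and compounds were first incubated 15 min at room temperature; enzyme-free buffer wells were negative controls.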
Potency is the fitted concentration of half-maximal effect.

Potency, active:
Cc1nnc(SCC2=C(C(=O)O)N3C(=O)C(NC(=O)COc4ccc(F)cc4)C3SC2)s1 (stereo unspecified) 20 µM

Potency, inconclusive:
COC(=O)C(Cc1ccc(O)cc1)NC(=O)c1ccccc1OC (stereo unspecified) 31.6 µM [inhibitor, single point], O=C(CCCSc1ccc(Cl)cc1)Nc1cc(S(=O)(=O)N2CCOCC2)ccc1O 12.6 µM [inhibitor, partial curve, poor fit], CCc1ccc(CCC(=O)Nc2sc(C)c(C)c2C(=O)OC)o1 14.1 µM [inhibitor, full curve, poor fit], Cc1cccc(NC(=O)c2sc3nc4c(c(-c5ccco5)c3c2N)CCC4)c1 35.5 µM [inhibitor, single point], COC(=O)CCCC1=CC2=C(c3ccccc3)C(=O)C(C)(OC(=O)C3CCCC3)C(=O)C2=CN1C1CCCCC1 (stereo unspecified) 8.91 µM [inhibitor, partial curve], CCN1C(=O)/C(=C\c2nc3ccccc3c(=O)n2CC)c2ccccc21 31.6 µM [inhibitor, single point], CCc1nnc(SCC(=O)Nc2ccc(N3CCOCC3)cc2)n1C 79.4 µM [inhibitor, single point], CCCN1C(=O)/C(=C/c2cc(C)n(C)c2C)SC1=Nc1ccc(OC)cc1 0.631 µM [inhibitor, full curve, poor fit], CCCCCCC[n+]1ccc(/C=C/c2c[nH]c3ccccc23)c2ccccc21 56.2 µM [inhibitor, partial curve, poor fit], O=C(O)CCc1ccc(-c2ccc(Br)cc2)n1-c1ccc(O)cc1 20 µM [inhibitor, partial curve, poor fit], CCN(CC)C(=O)c1[nH]cnc1C(=O)NCC(=O)OC(C)(C)C 14.1 µM [inhibitor, partial curve, poor fit], CCCCCCn1c(-c2ccco2)nc2oc3cc(OC)ccc3c(=O)c2c1=O 39.8 µM [inhibitor, single point], N#CC(C#N)=C1c2cc(S(N)(=O)=O)ccc2-c2ccc(S(N)(=O)=O)cc21 12.6 µM [inhibitor, partial curve, poor fit], O=C1NC[C@H](Cc2ccccc2)N(CC2CCN(CC3CCCC3)CC2)C1=O 89.1 µM [inhibitor, partial curve, poor fit], CC(C)C(=O)N(Cc1cc2ccccc2[nH]c1=O)C(C)(C)C 39.8 µM [inhibitor, single point], O=C(Cn1c(COc2ccccc2)nc2ccccc21)Nc1cccc(Cl)c1 112 µM [inhibitor, single point], CCOC(=O)c1c(NC(=S)Nc2ccccc2)sc2c1CCN(C)C2 17.8 µM [inhibitor, partial curve, poor fit], COc1ccc(CCn2c(=N)c(C(=O)NCC3CCCO3)cc3c(=O)n4cccc(C)c4nc32)cc1OC (stereo unspecified) 89.1 µM [inhibitor, single point], COCCN1C=C2C(=O)C(C)(OC(=O)CCC(=O)OC)C(=O)C(Br)=C2C=C1c1ccc(OC)cc1 (stereo unspecified) 20 µM [inhibitor, partial curve, poor fit], Cc1c(C(=O)O)oc2c1-c1nn(Cc3ccc(Cl)cc3)cc1CC2 17.8 µM [inhibitor, full curve, poor fit], Brc1ccc2nc(CSc3ncn[nH]3)cn2c1 28.2 µM [inhibitor, single point], COc1ccc(C=O)c(OCc2cn(CC(=O)c3ccc(O)cc3)nn2)c1 3.98 µM [inhibitor, full curve, poor fit], CC(=O)c1ccc(NC(=O)CN(C)S(=O)(=O)c2cnc[nH]2)cc1 100 µM [inhibitor, partial curve, poor fit], O=C1NC(=O)/C(=C\c2ccccc2OCc2ccc([N+](=O)[O-])cc2)N1 70.8 µM [inhibitor, single point], COCCN(CCOC)S(=O)(=O)c1ccc(C(=O)Nc2nc3c(s2)CCc2ccccc2-3)cc1 89.1 µM [inhibitor, partial curve, poor fit], COc1cc(C(=O)NNC(=O)/C=C/c2ccco2)cc(OC)c1OC 20 µM [inhibitor, full curve], COc1cccc(NC(=O)CSc2nnc(-c3ccco3)c(-c3ccco3)n2)c1 12.6 µM [inhibitor, full curve, poor fit], CN(C)C1(CN=Cc2cc(Cl)cc([N+](=O)[O-])c2O)CCCCC1 15.8 µM [inhibitor, full curve, poor fit], COc1ccc2nc(-c3ccccc3)cc(C(=O)OCC(=O)N3CC(C)OC(C)C3)c2c1 (stereo unspecified) 56.2 µM [inhibitor, partial curve, poor fit]

Potency, inactive:
O=C(NCc1noc2ccccc12)N1CCN(c2ccccc2)CC1, CCCn1c(=O)c2sccc2n2c(CCCC(=O)NCc3ccccc3)nnc12, NC(=O)COc1ccccc1C(=O)Nc1ccccc1, Cc1ccc(S(=O)(=O)Nc2cccc(C(=O)NCCCn3ccnc3)c2)cc1F, Cc1cccc(NC(=O)C(Cc2ccccc2)NS(=O)(=O)c2ccc3c(c2)c(=O)n(C)c(=O)n3C)c1 (stereo unspecified), COC(=O)c1cc(C)nc2c1c(=O)nc(SCc1ccccc1C)n2C1CC1, Cc1ccc(NC(=O)N2CCN(c3cc(-c4noc(C)n4)ccc3C)CC2)c(F)c1, Cc1ccc2cccc(NC(=O)C(C)Oc3ccc(Cl)cc3Cl)c2n1 (stereo unspecified), Cc1cc(Cl)c(OCCOCCN2CCCCC2)c(Br)c1, Cc1ccc(OCCSc2nc(C)c(Cc3ccccc3)c(=O)[nH]2)cc1, Cc1ccc(/C(N)=N/OC(=O)Cc2cccs2)cc1
